Assay results from PubChem BioAssay AID540256 (National Center for Advancing Translational Sciences (NCATS), 2011).
The campaign covered roughly 300,000 compounds. About 3,700 (1.2%) were called active. Inconclusive means that the source gave no clear call. Such entries were picked first, then a sample of the others. Calls come from the whole dose curve; tested in HEK293 cells. Where the call is inconclusive, the potency comes from a doubtful curve fit.

test: qHTS for Inhibitors of binding or entry into cells for Lassa Virus; conditions: Lassa virus pseudotype entry inhibition, cell reporter; activity change, negative = inhibition: at 37.9 µM (top of the series) unless noted; note: nearly all actives have a fitted effect of over 50% in size
% is set by controls: 0 for no effect and ±100 for the full control effect; potency is the fitted concentration of half-maximal effect.

Question: Which Potency does the source give for CCCCn1c(-c2ccc([N+](=O)[O-])cc2)n[nH]c1=S here?
Answer: Its Potency is inconclusive: 14.1 µM [activator, partial curve, poor fit].

Question: For Cc1ccc(S(=O)(=O)N2CCC(C(=O)N[C@@H](C)C(=O)Nc3ccc4c(c3)OCO4)CC2)cc1, which Potency is on record?
Answer: The Potency was “inactive”.

Question: With CCN(c1ccccc1)S(=O)(=O)c1ccc(Cl)c(NC(=O)CNC(C)c2ccccc2)c1 (centres undefined) as the molecule, how does the Potency read?
Answer: The Potency was inconclusive: 12.6 µM [inhibitor, partial curve, poor fit].

Question: Which Potency does the source give for CC(=C\C(=O)O)/C(=C/c1ccc(C)o1)C(=O)O here?
Answer: The Potency was inconclusive: 0.82 µM [inhibitor, full curve, poor fit].

Question: Which Potency does the source give for CS(=O)(=O)c1ccc(C(=O)N2CCN(Cc3ccccc3)CC2)cc1 here?
Answer: Its Potency is “inactive”.

Question: Which Potency does the source give for O=C(Nc1ccccc1C(=O)Nc1nnc(C(F)(F)F)s1)c1ccccc1Cl here?
Answer: The Potency was inconclusive: 35.5 µM [inhibitor, partial curve, poor fit].

Question: For CCOc1ccc(Oc2ccccc2NC(=O)CN2C(=O)NC3(CCCC3)C2=O)cc1, which activity change, negative = inhibition is on record?
Answer: The activity change, negative = inhibition was inconclusive: 24.5% [activator].

Question: Which Potency does the source give for CC(=O)Nc1ccc(NS(=O)(=O)c2ccc3[nH]c4c(c3c2)CCCCC4)cc1 here?
Answer: Its Potency is “inactive”.

Question: With COc1cc(-c2nnc(CSc3nnc(Nc4ccc(Oc5ccccc5)cc4)s3)o2)cc(OC)c1OC as the molecule, how does the Potency read?
Answer: The Potency was inconclusive: 15.8 µM [inhibitor, single point].

Question: With CCOc1ccc(C(=O)NCC(c2ccc3c(c2)OCO3)N2CCN(c3ccc(F)cc3)CC2)cc1 (centres undefined) as the molecule, how does the Potency read?
Answer: Its Potency is inconclusive: 3.98 µM [inhibitor, full curve, poor fit].

Question: For COc1ccc(CCN2C(=O)N(c3ccc(F)cc3)C(=O)C2CC(=O)Nc2ccc(OC)cc2)cc1 (centres undefined), which Potency is on record?
Answer: The Potency was “inactive”.

Question: Which Potency does the source give for O=C(Nc1nc2c(s1)CCCC2)c1cccs1 here?
Answer: Its Potency is inconclusive: 18.3 µM [inhibitor, single point].

Question: With COc1ccc(Cl)cc1NC(=S)N1CCC(c2ccc(C)cc2)C1 (centres undefined) as the molecule, how does the Potency read?
Answer: The Potency was “inactive”.

Question: With O=C(NN=Cc1ccc2c(c1)OCO2)NN=Cc1ccc2c(c1)OCO2 as the molecule, how does the Potency read?
Answer: The Potency was inconclusive: 35.5 µM [inhibitor, single point].

Question: For c1ccc(-c2[nH]c(-c3ccccc3)[n+](CC3CO3)c2-c2ccccc2)cc1 (centres undefined), which Potency is on record?
Answer: The Potency was inconclusive: 29.1 µM [inhibitor, single point].

Question: Which Potency does the source give for CCN1CCN(c2ccc(S(=O)(=O)N3CCCCC3)cc2NC(=O)/C=C/c2ccc(Cl)cc2)CC1 here?
Answer: The Potency was active: 17.8 µM.

Question: Which Potency does the source give for COc1ccc(C2=[N+]([O-])C(C)(C)N(O)C2C)cc1 (centres undefined) here?
Answer: Its Potency is inconclusive: 6.31 µM [activator, single point].

Question: With COc1ccc(OC)c(NC(=O)c2ccc(-c3cccs3)cc2)c1 as the molecule, how does the Potency read?
Answer: Its Potency is “inactive”.

Question: For CCN1C(=NCCCOC(C)C)N[C@H](c2ccccc2)[C@H](C(=O)OC)[C@H]1C, which Potency is on record?
Answer: The Potency was inconclusive: 0.075 µM [activator, full curve, poor fit].

Question: For COc1cc(S(=O)(=O)N2CCOCC2)cc(C(=O)OCC(=O)NCc2ccco2)c1OC, which Potency is on record?
Answer: Its Potency is “inactive”.

Question: With Cc1ccc(CNc2ccc(O)cc2)cc1 as the molecule, how does the Potency read?
Answer: Its Potency is inconclusive: 17.8 µM [inhibitor, single point].

Question: Which Potency does the source give for COc1ccccc1OCC(=O)NNC(=O)Nc1ccc(Cl)cc1 here?
Answer: The Potency was inconclusive: 2.24 µM [inhibitor, full curve].

Question: With COc1cc(-c2nnc(SCC(=O)Oc3ccccc3)o2)cc(OC)c1OC as the molecule, how does the Potency read?
Answer: Its Potency is “inactive”.

Question: For Cc1ccnc(N=Cc2c(O)ccc3oc4c(c23)CCCC4)c1, which Potency is on record?
Answer: Its Potency is inconclusive: 1.03 µM [inhibitor, partial curve, poor fit].

Question: For Cc1cc(C)c2[nH]c(=O)c(CN(Cc3cccs3)C(=S)NCC3CCCO3)cc2c1 (centres undefined), which Potency is on record?
Answer: The Potency was inconclusive: 35.5 µM [inhibitor, single point].

Question: Which Potency does the source give for N#CCCn1cnc2c1NC=NC2Cl (centres undefined) here?
Answer: The Potency was inconclusive: 0.531 µM [inhibitor, full curve].

Question: For COC(=O)C(Cc1ccc(O)cc1)NC(=O)NC12CC3CC(CC(C3)C1)C2 (centres undefined), which Potency is on record?
Answer: Its Potency is inconclusive: 35.5 µM [inhibitor, single point].

Question: Which Potency does the source give for CCOC(=O)N1CCN(C(=O)c2ccccc2-c2ccccc2)CC1 here?
Answer: The Potency was inconclusive: 10.3 µM [inhibitor, partial curve, poor fit].

Question: With COC(=O)C(C)n1nc(C)n(-c2ccc(C)cc2)c1=O (centres undefined) as the molecule, how does the Potency read?
Answer: Its Potency is “inactive”.

Question: Which Potency does the source give for Cc1c(C(=O)NCCNc2ncc(C(F)(F)F)cc2Cl)cccc1[N+](=O)[O-] here?
Answer: Its Potency is inconclusive: 14.6 µM [inhibitor, partial curve, poor fit].

Question: For CCC(=O)Nc1nc2ccccc2n1Cc1ccccc1, which Potency is on record?
Answer: Its Potency is inconclusive: 29.1 µM [inhibitor, single point].

Question: With CCOc1ccc(CNC(=O)CCCc2cn(C)c3ccccc23)cc1 as the molecule, how does the Potency read?
Answer: Its Potency is inconclusive: 7.08 µM [inhibitor, single point].

Question: With Cc1c(N(C(=O)CNC(=O)c2ccccc2)C2(C(=O)NC3CCCC3)CCCCC2)c(=O)n(-c2ccccc2)n1C as the molecule, how does the Potency read?
Answer: Its Potency is “inactive”.

Question: With COc1cc(CNn2nnnc2N)cc(Br)c1OCc1c(Cl)cccc1Cl as the molecule, how does the Potency read?
Answer: The Potency was inconclusive: 16.4 µM [inhibitor, single point].

Question: For CC(Oc1ccc(Br)cc1)C(=O)NNC(=O)CCN1CCN(c2ccccc2)CC1 (centres undefined), which Potency is on record?
Answer: Its Potency is “inactive”.

Question: Which Potency does the source give for CCOC(=O)c1sc(N2C(=O)C(O)=C(C(=O)c3ccc(C)o3)C2c2ccc(OC)c(OC)c2)nc1C (centres undefined) here?
Answer: Its Potency is “inactive”.

Question: Which Potency does the source give for Cn1c(/C(C#N)=C/C2CC=CCC2)nc2ccccc21 (centres undefined) here?
Answer: The Potency was “inactive”.

Question: With COc1cc(OC)c(NC(=O)N2CCN3CCCCC3C2)cc1Cl (centres undefined) as the molecule, how does the Potency read?
Answer: Its Potency is “inactive”.

Question: Which Potency does the source give for CC(C)(C)c1cc(C(C)(C)C)c2oc(=O)c(-c3nc4ccc(C(=O)O)cc4[nH]3)cc2c1 here?
Answer: Its Potency is “inactive”.

Question: With CCN(CC)c1ccc(/C=N/NC(=O)c2cnccn2)cc1 as the molecule, how does the Potency read?
Answer: The Potency was inconclusive: 35.5 µM [inhibitor, partial curve, poor fit].

Question: For CC1CCN(Cc2c(O)ccc3c(=O)c(-c4ccc(Cl)cc4)c(C(F)(F)F)oc23)CC1, which Potency is on record?
Answer: Its Potency is inconclusive: 1.41 µM [inhibitor, partial curve, poor fit].

Question: For CCCNC(=O)[C@H]1N2C(=O)c3c(ccc(OC)c3OC)C2SC1(C)C (some centres undefined), which Potency is on record?
Answer: The Potency was “inactive”.

Question: For COc1ccc(OC)c(CN(CCCN2CCOCC2)C(=O)Nc2ccccc2)c1, which Potency is on record?
Answer: Its Potency is inconclusive: 18.3 µM [activator, partial curve, poor fit].

Question: Which Potency does the source give for COc1ccc(-c2nnc(SCc3ccccc3F)o2)cc1 here?
Answer: The Potency was inconclusive: 1.26 µM [activator, single point].

Question: Which Potency does the source give for Cc1ccc(C(C)C)c(OCCN)c1 here?
Answer: The Potency was “inactive”.

Question: Which Potency does the source give for O=C(c1noc2c1CCCC2)N1CCN(c2ccc(F)cc2)CC1 here?
Answer: Its Potency is “inactive”.

Question: Which Potency does the source give for OCc1nc2c(ccc3ccccc32)[nH]1 here?
Answer: Its Potency is inconclusive: 22.4 µM [activator, single point].

Question: With O=c1[nH]c2ccccc2cc1CN(CC1CCCO1)S(=O)(=O)c1ccc(Cl)cc1 (centres undefined) as the molecule, how does the Potency read?
Answer: The Potency was “inactive”.

Question: With O=Nc1c(O)n(Cc2cccc(Cl)c2)c2ccccc12 as the molecule, how does the Potency read?
Answer: The Potency was inconclusive: 23.1 µM [inhibitor, single point].

Question: Which Potency does the source give for O=C(NCCOc1ccccc1)c1ccccc1 here?
Answer: The Potency was inconclusive: 18.3 µM [inhibitor, single point].

Question: Which Potency does the source give for Cc1ccccc1-c1ccc(CN2C(C)C(=O)N(Cc3cn(Cc4ccco4)nn3)CCS2(=O)=O)cc1 (centres undefined) here?
Answer: Its Potency is inconclusive: 8.87 µM [inhibitor, partial curve, poor fit].

Question: Which Potency does the source give for COc1ccc(C2(c3ccc(OC)cc3)NC(=O)N(CC(=O)Nc3ccccc3)C2=O)cc1 here?
Answer: Its Potency is inconclusive: 22.4 µM [inhibitor, partial curve, poor fit].

Question: Which Potency does the source give for Cc1cc(Br)c(NC(=O)CN2CCCC2)c(Br)c1 here?
Answer: The Potency was “inactive”.

Question: Which Potency does the source give for Cc1c(Br)ccc(NC(=O)CCN2C(=O)C3C4CCC(C4)C3C2=O)c1C (centres undefined) here?
Answer: Its Potency is “inactive”.

Question: Which Potency does the source give for COc1ccc(OC)c(NC(=O)Cc2c(C)n(C(=O)c3ccc(Cl)cc3)c3ccc(OC)cc23)c1 here?
Answer: The Potency was inconclusive: 1.12 µM [inhibitor, full curve, poor fit].

Question: With CCC(=O)c1ccc(OCc2cn(CC(=O)c3ccc(O)cc3)nn2)cc1 as the molecule, how does the Potency read?
Answer: Its Potency is inconclusive: 0.0887 µM [inhibitor, full curve, poor fit].

Question: For COC(=O)c1ccc(C(=O)OC)c(NC(=O)COC(=O)C2CC2C)c1 (centres undefined), which Potency is on record?
Answer: Its Potency is inconclusive: 3.16 µM [activator, single point].

Question: With CCn1c(=N)n(CC(=O)C(C)(C)C)c2ccccc21 as the molecule, how does the Potency read?
Answer: The Potency was “inactive”.

Question: Which Potency does the source give for CC(C)OC(=O)c1ccccc1C(=O)c1ccc(N)c([N+](=O)[O-])c1 here?
Answer: Its Potency is “inactive”.

Question: With C#CCN1C(=O)C(O)(CC(=O)c2ccc(OC)c(OC)c2)c2ccccc21 (centres undefined) as the molecule, how does the Potency read?
Answer: The Potency was “inactive”.

Question: Which Potency does the source give for CCOc1ccc(CCNC(=O)c2ccc(CS(=O)(=O)c3ccccc3C)o2)cc1OCC here?
Answer: Its Potency is inconclusive: 35.5 µM [inhibitor, partial curve, poor fit].

Question: With C=CCNc1nc(C(=O)OCC(=O)Nc2ccc(S(N)(=O)=O)cc2)cs1 as the molecule, how does the Potency read?
Answer: Its Potency is inconclusive: 2.82 µM [activator, full curve].

Question: For C=CCc1ccc(OCCCOc2ccc(C)c(C)c2)c(OC)c1, which Potency is on record?
Answer: Its Potency is “inactive”.

Question: With OC(CNCCc1ccc(C(F)(F)F)cc1)COc1ccc2ccccc2c1 (centres undefined) as the molecule, how does the Potency read?
Answer: The Potency was active: 16.4 µM.

Question: With COc1ccc(-n2c(SCC#N)nnc2-c2ccc(NS(=O)(=O)c3ccc(C)cc3)cc2)cc1 as the molecule, how does the Potency read?
Answer: Its Potency is inconclusive: 23.1 µM [inhibitor, single point].

Question: Which Potency does the source give for Cc1nc(C)c(-c2csc(NCCc3ccccc3)n2)s1 here?
Answer: Its Potency is inconclusive: 20 µM [inhibitor, partial curve, poor fit].

Question: For CN(C)CCCN(C(=O)c1ccco1)c1nc2ccc(Cl)cc2s1, which Potency is on record?
Answer: The Potency was inconclusive: 17.8 µM [inhibitor, single point].

Question: With COC(=O)[C@H](CC(C)C)NC(=O)c1cc2c(cn1)[nH]c1ccccc12 as the molecule, how does the Potency read?
Answer: The Potency was inconclusive: 7.08 µM [inhibitor, partial curve].

Question: For CC(=O)Nc1nc2ccccc2n1CCOc1ccccc1, which Potency is on record?
Answer: The Potency was inconclusive: 35.5 µM [inhibitor, single point].
